Reference: publication PMC4015977
These are yes or no findings as the source states them, for the method shown. Binding seen in cells or lysates may run through a third protein. Some results given as binding are weak or reduced against the parent protein; the word gives no strength.

Molecular target: T1, active caspase-8 (labelled with biotin-VAD-fmk) (mouse (endogenous in MEF)) (UniProt O89110)
T1 sequence (chain, labelled in cells with biotin-VAD-fmk (bVAD-fmk)): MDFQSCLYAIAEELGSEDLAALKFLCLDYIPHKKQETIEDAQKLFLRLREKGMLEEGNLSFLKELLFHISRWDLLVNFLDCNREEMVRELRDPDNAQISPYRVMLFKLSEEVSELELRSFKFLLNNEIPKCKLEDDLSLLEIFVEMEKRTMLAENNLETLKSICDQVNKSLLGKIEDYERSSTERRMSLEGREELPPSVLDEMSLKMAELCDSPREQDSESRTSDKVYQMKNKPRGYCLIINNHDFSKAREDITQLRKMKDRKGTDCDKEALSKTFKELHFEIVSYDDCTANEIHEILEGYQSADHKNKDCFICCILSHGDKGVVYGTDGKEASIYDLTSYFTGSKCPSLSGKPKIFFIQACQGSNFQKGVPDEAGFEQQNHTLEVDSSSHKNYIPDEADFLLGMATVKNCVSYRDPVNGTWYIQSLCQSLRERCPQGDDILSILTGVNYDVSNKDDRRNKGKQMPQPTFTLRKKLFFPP
Test: pull-down; biotin-VAD-fmk precipitation: MEFs 24 h after CVB3 infection incubated with 50 uM bVAD-fmk for 5 h at 37 C, lysed, 600 ug protein with magnetic streptavidin beads at 4 C for 2 h, 5 washes; caspase-8 and MAVS detected by immunoblot

B1: mitochondrial antiviral signaling protein (MAVS) (protein, UniProt Q8VCF0 1-503)
chain: MTFAEDKTYKYIRDNHSKFCCVDVLEILPYLSCLTASDQDRLRASYRQIGNRDTLWGLFNNLQRRPGWVEVFIRALQICELPGLADQVTRVYQSYLPPGTSLRSLEPLQLPDFPAAVSGPSAFAPGHNIPDHGLRETPSCPKPVQDTQPPESPVENSEQLLQTNSGAVARMSGGSLIPSPNQQALSPQPSREHQEQEPELGGAHAANVASVPIATYGPVSPTVSFQPLPRTALRTNLLSGVTVSALSADTSLSSSSTGSAFAKGAGDQAKAATCFSTTLTNSVTTSSVPSPRLVPVKTMSSKLPLSSKSTAAMTSTVLTNTAPSKLPSNSVYAGTVPSRVPASVAKAPANTIPPERNSKQAKETPEGPATKVTTGGNQTGPNSSIRSLHSGPEMSKPGVLVSQLDEPFSACSVDLAISPSSSLVSEPNHGPEENEYSSFRIQVDESPSADLLGSPEPLATQQPQEEEEHCASSMPWAKWLGATSALLAVFLAVMLYRSRRLAQ
binding: binds
